# PMC5425608
# Amino acid sequences for entries named in this document (tags omitted).
# UniProt Q62406: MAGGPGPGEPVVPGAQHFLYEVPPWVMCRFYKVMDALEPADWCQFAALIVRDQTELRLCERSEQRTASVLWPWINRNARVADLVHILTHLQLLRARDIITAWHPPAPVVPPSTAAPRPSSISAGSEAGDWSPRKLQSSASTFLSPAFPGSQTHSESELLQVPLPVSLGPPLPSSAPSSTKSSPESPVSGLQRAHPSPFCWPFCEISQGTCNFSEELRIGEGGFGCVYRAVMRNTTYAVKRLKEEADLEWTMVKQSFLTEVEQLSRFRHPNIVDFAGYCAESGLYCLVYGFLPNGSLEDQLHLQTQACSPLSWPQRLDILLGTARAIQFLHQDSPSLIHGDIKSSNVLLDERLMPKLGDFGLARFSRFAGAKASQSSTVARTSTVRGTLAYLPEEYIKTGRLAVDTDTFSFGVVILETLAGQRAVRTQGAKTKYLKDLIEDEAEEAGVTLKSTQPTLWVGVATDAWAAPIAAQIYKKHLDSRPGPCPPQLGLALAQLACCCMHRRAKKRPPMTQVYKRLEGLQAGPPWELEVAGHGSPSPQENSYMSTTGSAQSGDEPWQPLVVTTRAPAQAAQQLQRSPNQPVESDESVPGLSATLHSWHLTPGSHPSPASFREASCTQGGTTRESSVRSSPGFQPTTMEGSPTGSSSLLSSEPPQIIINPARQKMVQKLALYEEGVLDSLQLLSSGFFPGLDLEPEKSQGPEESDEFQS
# These are yes or no findings as the source states them, for the method shown. In cells and extracts the contact can be indirect. Some results given as binding are weak or reduced against the parent protein; the word gives no strength.
# Biological target: T1, endogenous TRAF6, mouse embryonic fibroblasts (mouse (endogenous in MEFs)) (UniProt P70196)
# T1 sequence: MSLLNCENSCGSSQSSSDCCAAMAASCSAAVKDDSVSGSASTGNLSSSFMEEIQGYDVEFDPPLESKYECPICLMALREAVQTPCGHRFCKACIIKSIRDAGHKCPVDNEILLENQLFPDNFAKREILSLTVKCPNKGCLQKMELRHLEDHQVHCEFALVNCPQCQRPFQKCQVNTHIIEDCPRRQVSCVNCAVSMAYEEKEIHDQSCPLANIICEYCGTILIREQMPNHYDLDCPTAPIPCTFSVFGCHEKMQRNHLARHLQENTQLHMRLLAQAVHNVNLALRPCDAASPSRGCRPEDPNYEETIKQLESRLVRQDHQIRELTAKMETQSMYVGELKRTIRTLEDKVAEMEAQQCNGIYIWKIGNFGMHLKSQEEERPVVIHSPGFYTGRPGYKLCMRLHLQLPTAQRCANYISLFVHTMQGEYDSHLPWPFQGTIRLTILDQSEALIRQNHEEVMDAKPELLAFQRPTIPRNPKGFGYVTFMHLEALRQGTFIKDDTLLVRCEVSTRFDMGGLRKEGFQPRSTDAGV
# Assay: co-IP; endogenous proteins; LRRK2 +/+ or LRRK2 -/- MEFs treated with 50 ng/ml IL-1β for the indicated times; IP with anti-TRAF6, blot with anti-IRAK1; pre-immune IgG as control
substance,measurement,value
"endogenous IRAK1, mouse embryonic fibroblasts (from UniProt Q62406 1-710) (enzyme)",binding,binds
